Results are given in words; binding and its absence hold for the method and conditions named. For some assays here: In cells and extracts the contact can be indirect. Some entries that bind do so weakly or less than the wild type. For some assays here: Sequences can lack the tags named with a protein.
Key:
[1] = biological target: T1, His tagged MANF protein (His-MANF) (UniProt Q9CXI5); experiment: pull-down; in vitro binding assay: His-MANF recombinant protein mixed with glutathione beads conjugated with GST-ELAVL2 or its fragments in 500 ul NP40 buffer, 4 °C overnight, western blotting; the legend says MANF antibody pull-down; both purified
T1 sequence: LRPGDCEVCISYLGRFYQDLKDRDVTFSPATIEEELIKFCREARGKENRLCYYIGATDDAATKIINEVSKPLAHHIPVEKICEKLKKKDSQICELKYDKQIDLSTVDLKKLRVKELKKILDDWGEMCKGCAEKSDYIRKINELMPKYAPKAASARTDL

The chains behind the UniProt entries cited, without tags or fusion partners.
UniProt Q60899: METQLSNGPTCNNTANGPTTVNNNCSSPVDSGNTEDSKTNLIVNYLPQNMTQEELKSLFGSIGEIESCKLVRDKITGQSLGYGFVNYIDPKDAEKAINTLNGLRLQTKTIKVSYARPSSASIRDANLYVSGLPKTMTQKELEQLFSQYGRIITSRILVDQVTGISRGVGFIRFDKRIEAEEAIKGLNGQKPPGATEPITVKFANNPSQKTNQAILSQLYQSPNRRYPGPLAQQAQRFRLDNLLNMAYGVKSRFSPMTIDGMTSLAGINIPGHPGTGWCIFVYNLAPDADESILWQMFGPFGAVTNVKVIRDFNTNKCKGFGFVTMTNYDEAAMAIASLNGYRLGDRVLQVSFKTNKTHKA

[2] = biological target: ELAV like RNA-binding protein 2 (ELAVL2), endogenous (mouse (endogenous in WT mouse brain)) (UniProt Q60899); experiment: co-IP; WT mouse brain lysate in NP-40 buffer (50 mM NaCl, 50 mM Tris-HCl pH8.0, 0.1% Triton X-100, 0.5% NP-40), 300 ug protein, ELAVL2 antibody overnight, protein A-agarose, western blotting; rabbit IgG as negative control

GST-tagged full-length ELAVL2 protein (GST-ELAVL2) (from UniProt Q60899 1-360)
binding [1]: binds

B1: Mesencephalic astrocyte-derived neurotrophic factor (MANF), endogenous (protein, UniProt Q9CXI5 22-179)
chain: T1 sequence
binding [2]: binds

— publication PMC11490049
